Changes are numbered by the printed parent chain. For some of these results: Weaker means in comparison with the reference protein, sequence or condition of that experiment. Where a protein sequence is shown, tags need not be part of it. For some of these results: The exact form of at least one protein or probe is not confirmed. For some of these results: At least one verdict rests on a figure or table, not on a statement of the authors.
Tests used:
Assay in all cases: EMSA
[1] = target: T1, Redβ D80A (Bacteriophage λ (Enterobacteria phage λ)) (UniProt P03698); conditions: 5 mM Mg2+, second strand added after first; ssDNA EMSA: 10 nM DNA, 50 mM potassium phosphate pH 6.0, 5 mM EDTA, 5% glycerol, 0.1 mg/ml BSA, 37°C, 40 min, then 0.1% glutaraldehyde; recombinant protein; residues 1-261; protein details: His6 removed, N-terminal GSH left; label: 5' Cy3 on strand 1, strand 2 unlabeled
T1 sequence (looked up): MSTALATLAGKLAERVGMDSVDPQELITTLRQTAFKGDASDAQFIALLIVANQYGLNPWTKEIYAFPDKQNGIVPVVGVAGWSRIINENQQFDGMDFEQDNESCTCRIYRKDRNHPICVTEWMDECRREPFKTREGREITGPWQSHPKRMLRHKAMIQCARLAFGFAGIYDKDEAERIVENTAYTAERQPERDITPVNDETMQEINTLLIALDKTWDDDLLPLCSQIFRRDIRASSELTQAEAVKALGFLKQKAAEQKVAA

[2] = target: T2, Redβ G78A (Bacteriophage λ (Enterobacteria phage λ)) (UniProt P03698); conditions: 5 mM Mg2+, second strand added after first; ssDNA EMSA: 10 nM DNA, 50 mM potassium phosphate pH 6.0, 5 mM EDTA, 5% glycerol, 0.1 mg/ml BSA, 37°C, 40 min, then 0.1% glutaraldehyde; recombinant protein; residues 1-261; protein details: His6 removed, N-terminal GSH left; label: 5' Cy3 on strand 1, strand 2 unlabeled
T2 sequence (looked up): T1 sequence (looked up) with G78A, A80D

[3] = target: T3, Redβ K132A (Bacteriophage λ (Enterobacteria phage λ)) (UniProt P03698); conditions: 5 mM Mg2+, second strand added after first; ssDNA EMSA: 10 nM DNA, 50 mM potassium phosphate pH 6.0, 5 mM EDTA, 5% glycerol, 0.1 mg/ml BSA, 37°C, 40 min, then 0.1% glutaraldehyde; recombinant protein; residues 1-261; protein details: His6 removed, N-terminal GSH left; label: 5' Cy3 on strand 1, strand 2 unlabeled
T3 sequence (looked up): T1 sequence (looked up) with A80D, K132A

[4] = target: T4, Redβ K148A (Bacteriophage λ (Enterobacteria phage λ)) (UniProt P03698); conditions: 5 mM Mg2+, second strand added after first; ssDNA EMSA: 10 nM DNA, 50 mM potassium phosphate pH 6.0, 5 mM EDTA, 5% glycerol, 0.1 mg/ml BSA, 37°C, 40 min, then 0.1% glutaraldehyde; recombinant protein; residues 1-261; protein details: His6 removed, N-terminal GSH left; label: 5' Cy3 on strand 1, strand 2 unlabeled
T4 sequence (looked up): T1 sequence (looked up) with A80D, K148A

[5] = target: T5, Redβ K172A (Bacteriophage λ (Enterobacteria phage λ)) (UniProt P03698); conditions: 5 mM Mg2+, second strand added after first; ssDNA EMSA: 10 nM DNA, 50 mM potassium phosphate pH 6.0, 5 mM EDTA, 5% glycerol, 0.1 mg/ml BSA, 37°C, 40 min, then 0.1% glutaraldehyde; recombinant protein; residues 1-261; protein details: His6 removed, N-terminal GSH left; label: 5' Cy3 on strand 1, strand 2 unlabeled
T5 sequence (looked up): T1 sequence (looked up) with A80D, K172A

[6] = target: T6, Redβ K69A (Bacteriophage λ (Enterobacteria phage λ)) (UniProt P03698); conditions: 5 mM Mg2+, second strand added after first; ssDNA EMSA: 10 nM DNA, 50 mM potassium phosphate pH 6.0, 5 mM EDTA, 5% glycerol, 0.1 mg/ml BSA, 37°C, 40 min, then 0.1% glutaraldehyde; recombinant protein; residues 1-261; protein details: His6 removed, N-terminal GSH left; label: 5' Cy3 on strand 1, strand 2 unlabeled
T6 sequence (looked up): T1 sequence (looked up) with K69A, A80D

[7] = target: T7, Redβ R149A (Bacteriophage λ (Enterobacteria phage λ)) (UniProt P03698); conditions: 5 mM Mg2+, second strand added after first; ssDNA EMSA: 10 nM DNA, 50 mM potassium phosphate pH 6.0, 5 mM EDTA, 5% glycerol, 0.1 mg/ml BSA, 37°C, 40 min, then 0.1% glutaraldehyde; recombinant protein; residues 1-261; protein details: His6 removed, N-terminal GSH left; label: 5' Cy3 on strand 1, strand 2 unlabeled
T7 sequence (looked up): T1 sequence (looked up) with A80D, R149A

[8] = target: T8, Redβ R152A (Bacteriophage λ (Enterobacteria phage λ)) (UniProt P03698); conditions: 5 mM Mg2+, second strand added after first; ssDNA EMSA: 10 nM DNA, 50 mM potassium phosphate pH 6.0, 5 mM EDTA, 5% glycerol, 0.1 mg/ml BSA, 37°C, 40 min, then 0.1% glutaraldehyde; recombinant protein; residues 1-261; protein details: His6 removed, N-terminal GSH left; label: 5' Cy3 on strand 1, strand 2 unlabeled
T8 sequence (looked up): T1 sequence (looked up) with A80D, R152A

[9] = target: T9, Redβ R161A (Bacteriophage λ (Enterobacteria phage λ)) (UniProt P03698); conditions: 5 mM Mg2+, second strand added after first; ssDNA EMSA: 10 nM DNA, 50 mM potassium phosphate pH 6.0, 5 mM EDTA, 5% glycerol, 0.1 mg/ml BSA, 37°C, 40 min, then 0.1% glutaraldehyde; recombinant protein; residues 1-261; protein details: His6 removed, N-terminal GSH left; label: 5' Cy3 on strand 1, strand 2 unlabeled
T9 sequence (looked up): T1 sequence (looked up) with A80D, R161A

[10] = target: T10, Redβ V77A (Bacteriophage λ (Enterobacteria phage λ)) (UniProt P03698); conditions: 5 mM Mg2+, second strand added after first; ssDNA EMSA: 10 nM DNA, 50 mM potassium phosphate pH 6.0, 5 mM EDTA, 5% glycerol, 0.1 mg/ml BSA, 37°C, 40 min, then 0.1% glutaraldehyde; recombinant protein; residues 1-261; protein details: His6 removed, N-terminal GSH left; label: 5' Cy3 on strand 1, strand 2 unlabeled
T10 sequence (looked up): T1 sequence (looked up) with V77A, A80D

[11] = target: T11, Redβ V79A (Bacteriophage λ (Enterobacteria phage λ)) (UniProt P03698); conditions: 5 mM Mg2+, second strand added after first; ssDNA EMSA: 10 nM DNA, 50 mM potassium phosphate pH 6.0, 5 mM EDTA, 5% glycerol, 0.1 mg/ml BSA, 37°C, 40 min, then 0.1% glutaraldehyde; recombinant protein; residues 1-261; protein details: His6 removed, N-terminal GSH left; label: 5' Cy3 on strand 1, strand 2 unlabeled
T11 sequence (looked up): T1 sequence (looked up) with V79A, A80D

[12] = target: T12, Redβ WT (Bacteriophage λ (Enterobacteria phage λ)) (UniProt P03698); conditions: 5 mM Mg2+, second strand added after first; ssDNA EMSA: 10 nM DNA, 50 mM potassium phosphate pH 6.0, 5 mM EDTA, 5% glycerol, 0.1 mg/ml BSA, 37°C, 40 min, then 0.1% glutaraldehyde; recombinant protein; residues 1-261; label: 5' Cy3 on strand 1, strand 2 unlabeled
T12 sequence (looked up): T1 sequence (looked up) with A80D

[13] = target: T13, Redβ Y64A (Bacteriophage λ (Enterobacteria phage λ)) (UniProt P03698); conditions: 5 mM Mg2+, second strand added after first; ssDNA EMSA: 10 nM DNA, 50 mM potassium phosphate pH 6.0, 5 mM EDTA, 5% glycerol, 0.1 mg/ml BSA, 37°C, 40 min, then 0.1% glutaraldehyde; recombinant protein; residues 1-261; protein details: His6 removed, N-terminal GSH left; label: 5' Cy3 on strand 1, strand 2 unlabeled
T13 sequence (looked up): T1 sequence (looked up) with Y64A, A80D

TGCGGATGGCTTAGAGCTTAATTGCTGAATCTGGTGCTGTAGCTCAACAT (double strand) [50-minus + 50-plus, sequentially added complementary strands]
binding result [1]: binds more weakly
binding result [2]: binds more weakly
binding result [3]: binds more weakly
binding result [4]: binds more weakly
binding result [5]: binds more weakly
binding result [6]: binds more weakly
binding result [7]: binds more weakly
binding result [8]: binds more weakly
binding result [9]: binds more weakly
binding result [10]: binds more weakly
binding result [11]: binds more weakly
binding result [12]: binds
binding result [13]: binds more weakly
